Laboratory results from paper PMC5134000.
These are yes or no findings as the source states them, for the method shown. In cells and extracts the contact can be indirect. Some results given as binding are weak or reduced against the parent protein; the word gives no strength.

Protein sequences, listed by entry. Tags and fused reporters are not part of them.
UniProt Q9H2X6: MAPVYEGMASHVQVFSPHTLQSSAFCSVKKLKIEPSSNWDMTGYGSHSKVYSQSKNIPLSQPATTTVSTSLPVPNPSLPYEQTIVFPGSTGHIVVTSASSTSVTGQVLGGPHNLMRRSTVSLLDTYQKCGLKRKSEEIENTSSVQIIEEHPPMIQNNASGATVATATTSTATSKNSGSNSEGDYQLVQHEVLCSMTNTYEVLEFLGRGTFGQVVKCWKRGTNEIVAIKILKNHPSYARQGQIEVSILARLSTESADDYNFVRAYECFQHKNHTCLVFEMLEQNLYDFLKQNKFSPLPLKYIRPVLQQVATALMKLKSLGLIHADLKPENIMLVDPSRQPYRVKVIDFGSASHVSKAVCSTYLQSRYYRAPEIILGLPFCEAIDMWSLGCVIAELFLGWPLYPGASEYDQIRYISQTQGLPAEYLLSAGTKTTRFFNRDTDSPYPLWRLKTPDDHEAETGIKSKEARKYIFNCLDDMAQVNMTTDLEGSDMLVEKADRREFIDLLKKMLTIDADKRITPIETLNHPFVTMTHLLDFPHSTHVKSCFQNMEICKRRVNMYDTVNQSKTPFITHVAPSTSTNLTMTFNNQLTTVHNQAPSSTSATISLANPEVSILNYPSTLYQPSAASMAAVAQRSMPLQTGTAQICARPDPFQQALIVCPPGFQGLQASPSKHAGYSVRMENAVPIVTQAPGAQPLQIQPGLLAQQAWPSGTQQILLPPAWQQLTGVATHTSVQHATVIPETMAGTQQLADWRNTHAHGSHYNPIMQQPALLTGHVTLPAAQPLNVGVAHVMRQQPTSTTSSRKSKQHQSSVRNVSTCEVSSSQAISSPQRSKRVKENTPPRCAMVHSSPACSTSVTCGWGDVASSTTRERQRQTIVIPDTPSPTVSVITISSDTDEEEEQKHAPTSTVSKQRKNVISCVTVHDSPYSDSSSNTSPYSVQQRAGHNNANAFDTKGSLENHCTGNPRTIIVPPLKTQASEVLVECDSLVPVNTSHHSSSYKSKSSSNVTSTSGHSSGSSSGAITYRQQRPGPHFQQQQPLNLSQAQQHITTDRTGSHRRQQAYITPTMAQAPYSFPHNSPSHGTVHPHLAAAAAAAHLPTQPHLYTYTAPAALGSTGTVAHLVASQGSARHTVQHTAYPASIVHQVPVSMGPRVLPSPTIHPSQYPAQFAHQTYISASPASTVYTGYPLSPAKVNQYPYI
UniProt P09874: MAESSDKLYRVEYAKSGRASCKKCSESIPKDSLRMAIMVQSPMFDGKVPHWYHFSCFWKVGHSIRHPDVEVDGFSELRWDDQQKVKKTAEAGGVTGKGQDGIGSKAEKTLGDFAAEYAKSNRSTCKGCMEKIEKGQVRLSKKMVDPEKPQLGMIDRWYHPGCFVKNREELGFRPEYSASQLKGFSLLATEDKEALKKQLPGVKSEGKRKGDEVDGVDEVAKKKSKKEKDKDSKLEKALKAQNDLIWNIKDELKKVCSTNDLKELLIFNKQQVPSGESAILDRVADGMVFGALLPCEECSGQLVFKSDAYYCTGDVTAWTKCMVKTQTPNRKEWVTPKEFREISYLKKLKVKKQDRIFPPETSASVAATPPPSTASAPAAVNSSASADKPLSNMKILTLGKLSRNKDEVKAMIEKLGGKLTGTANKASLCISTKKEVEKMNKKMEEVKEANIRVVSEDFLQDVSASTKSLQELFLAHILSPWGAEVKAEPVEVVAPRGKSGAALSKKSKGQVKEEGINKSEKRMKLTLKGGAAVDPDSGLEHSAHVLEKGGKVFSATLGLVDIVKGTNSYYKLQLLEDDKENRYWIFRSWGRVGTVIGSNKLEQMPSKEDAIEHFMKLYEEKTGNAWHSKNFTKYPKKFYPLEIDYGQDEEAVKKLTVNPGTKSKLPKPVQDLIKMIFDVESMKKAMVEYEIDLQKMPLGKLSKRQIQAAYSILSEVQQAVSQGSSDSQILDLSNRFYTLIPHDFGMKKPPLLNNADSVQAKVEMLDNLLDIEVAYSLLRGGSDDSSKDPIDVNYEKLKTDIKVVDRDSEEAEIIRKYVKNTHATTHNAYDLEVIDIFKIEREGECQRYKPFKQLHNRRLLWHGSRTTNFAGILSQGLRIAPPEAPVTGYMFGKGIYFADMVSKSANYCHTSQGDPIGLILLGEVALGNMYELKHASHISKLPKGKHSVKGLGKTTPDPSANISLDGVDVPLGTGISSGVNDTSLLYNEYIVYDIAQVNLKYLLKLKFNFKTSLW

Target: endogenous HIPK2 (human (endogenous in HEK 293)) (UniProt Q9H2X6)
Experiment: co-IP; HEK 293 cells, transfected tagged and/or endogenous proteins; high-salt lysis buffer (50 mM Tris/HCl pH 7.5, 1% Nonidet P-40, 300 mM NaCl, 150 mM KCl, 5 mM EDTA) diluted with lysis buffer without NaCl and KCl; antibodies and protein A-Sepharose overnight at 4 °C; in some panels cells treated with MG132 (5 uM, 10 h), siHSP70, siPARP1 or doxorubicin (2 ug/ml)

## endogenous PARP1 (poly(ADP-ribose) polymerase 1) (from UniProt P09874 1-1014) (enzyme)
  binding: binds
